Measurements reported in PubChem BioAssay AID1259425 (University of Nebraska Medical Center, 2018)
Screen: 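Find knockdowns that reproduce the gene expression pattern seen when KSR1 is lost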 (primary screen). Cells: HCT116 human colon cancer cells. Reagents: siRNA pool against human genes, 50 nM siRNA. Measured: 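mRNA of six signature genes measured together by branched-DNA assay after 50 nM siRNA pool, blank removed, divided by geometric mean of two housekeeping genes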. Direction: BNIP3L mRNA: higher = more BNIP3L transcript after knockdown; NDRG1 mRNA: higher = more NDRG1 transcript after knockdown; BNIP3 mRNA: higher = more BNIP3 transcript after knockdown.
This is a random part of about 14,000 reagents tested. Further read-outs or replicates are left out here. No sequences are given here. Not stated in the record: the time to read-out.

no.	gene	BNIP3L mRNA, set 1	NDRG1 mRNA, set 1	BNIP3 mRNA, set 1
1	UPK1B	0.0877	0.118	0.2
2	MAN2A1	0.138	0.317	0.32
3	KIAA0753	0.103	0.23	0.309
4	SPG21	0.0672	0.159	0.34
5	MCM10	0.222	0.277	0.396
6	USP45	0.131	0.212	0.323
7	PLA2G2A	0.118	0.15	0.219
8	STOM	0.173	0.178	0.424
9	BRWD1	0.0864	0.172	0.314
10	HINT2	0.28	0.224	0.218
11	PTPN18	0.122	0.235	0.179
12	WDR46	0.139	1.22	0.114
13	H2BC11	0.0821	0.203	0.245
14	ALPI	0.0722	0.488	0.338
15	SGIP1	0.204	0.339	0.365
16	FABP2	0.0867	0.201	0.222
17	SRPX2	0.224	0.0756	0.247
18	ACADM	0.176	0.128	0.375
19	CD36	0.0287	0.0972	0.218
20	SHMT2	0.115	0.153	0.393
21	SLC10A7	0.22	0.298	0.233
22	NUDT4	0.141	0.084	0.293
23	HLTF	0.0718	0.114	0.212
24	UHRF1	0.0844	0.179	0.252
25	ANKIB1	0.132	0.213	0.406
26	CD55	0.0825	0.135	0.317
27	TOR1AIP1	0.16	0.151	0.405
28	MPDZ	0.0343	0.177	0.257
29	CCDC40	0.0992	0.144	0.257
30	RIGI	0.0876	0.144	0.425
31	H2AP	0.123	0.248	0.431
32	RCAN2	0.148	0.71	0.342
33	PIKFYVE	0.123	0.236	0.264
34	DOK1	0.101	0.836	0.278
35	PDCD2L	0.301	0.159	0.345
36	NFASC	0.228	0.625	0.305
37	PHF19	0.161	0.593	0.45
38	MON1B	0.129	0.241	0.258
39	ALOX15	0.121	0.631	0.372
40	TAAR6	0.114	0.117	0.311
41	CDK18	0.207	0.336	0.386
42	XPNPEP2	0.148	0.239	0.266
43	CHI3L2	0.0821	0.097	0.385
44	KIF3A	0.0696	0.189	0.244
45	GPBAR1	0.189	0.282	0.392
46	UBXN8	0.109	0.111	0.514
47	FBXW7	0.134	0.254	0.304
48	OR2L2	0.123	0.179	0.596
49	TBC1D15	0.131	0.155	0.328
50	SRPK3	0.148	0.102	0.361
51	SEMA3A	0.102	0.144	0.39
52	RPS6KA2	0.13	0.37	0.499
53	DNAI1	0.0718	0.289	0.269
54	OGG1	0.183	0.0692	0.175
55	HDAC1	0.0754	0.465	0.201
56	TTC23	0.0834	0.442	0.493
57	THBD	0.105	0.192	0.151
58	GNA15	0.226	0.193	0.302
59	COPE	0.129	0.174	0.235
60	SNRNP27	0.0724	1.09	0.353
61	RABIF	0.168	0.192	0.272
62	RAB21	0.116	0.0782	0.209
63	PI3	0.074	0.261	0.25

9 entries from above, reformatted:
gene | BNIP3L mRNA, set 1 | NDRG1 mRNA, set 1 | BNIP3 mRNA, set 1
ACADM | 0.176 | 0.128 | 0.375
CD36 | 0.0287 | 0.0972 | 0.218
SHMT2 | 0.115 | 0.153 | 0.393
SLC10A7 | 0.22 | 0.298 | 0.233
NUDT4 | 0.141 | 0.084 | 0.293
HLTF | 0.0718 | 0.114 | 0.212
UHRF1 | 0.0844 | 0.179 | 0.252
ANKIB1 | 0.132 | 0.213 | 0.406
CD55 | 0.0825 | 0.135 | 0.317
